Source: PubChem BioAssay AID248 (DTP/NCI, 2004)
The list does not hold the whole screen: it is rich in T/C values a quarter to a half above the control, in often repeated tests (any T/C) and in doses without a T/C. Other doses and runs of a compound stand elsewhere. T/C gives the treated animals as a percentage of the vehicle group. Some doses have a count of surviving animals in place of a T/C: the source holds a T/C of zero for them, seemingly a mark for toxic or unscored doses. Some doses without a T/C left all or most animals alive at the check, yet need not have been tolerated: the source hardly ever lists a survival T/C far under the control, and the zero likely stands for such cases as well. Counts of survivors are from the toxicity check (mostly the fifth day) where no day follows; animals may have died later. Schedule codes are those of the source, taken here to give the interval after Q, in days (D) or hours (H), and the number of doses after X. Some entries hold several experiments; the values are given in rising order. For survival time, this PubChem deposit counts one and a half times the control or more as active, and values a quarter to a half above the control carry no call in these data; other NCI protocols may use other cut-offs.

System: L1210 leukemia ip in BDF1 mice, survival T/C
Test: NCI In Vivo Anticancer Drug Screen. Data for tumor model L1210 Leukemia (intraperitoneal) in B6D2F1 (BDF1) mice
Details: T/C endpoint: mean survival time, higher T/C = longer survival
[1] = dose: 400.0 mg/kg/injection, schedule: Q01DX001 (ip), vehicle: saline
[2] = dose: 400.0 mg/kg/injection, schedule: Q04DX003 (ip), vehicle: saline with Tween-80

Structure (SMILES): NC(N)=NC1CCCCC1
- survivor count (dose: 400.0 mg/kg/injection, schedule: Q04DX003 (ip), vehicle: saline): 2 of 4

Structure (SMILES): Nc1ncc(C=Nc2ccc(C(=O)O)cc2)c(N)n1
- survivor count (dose: 100.0 mg/kg/injection, schedule: Q01DX001 (ip), vehicle: carboxymethylcellulose (CMC)): 6 of 6

Structure (SMILES): CCOC(=O)c1cc(Cl)c(O)c(Cl)c1
- survivor count (dose: 200.0 mg/kg/injection, schedule: Q01DX009 (ip), vehicle: gum acacia): 2 of 6
- survivor count (dose: 400.0 mg/kg/injection, schedule: Q01DX009 (ip), vehicle: gum acacia): 0 of 6

Structure (SMILES): CCCCc1cccc2c1OCO2
- survivor count [1]: 0 of 4

Structure (SMILES): CCOC(=O)c1ccc(NC(=O)Nc2cc(OC)ccc2OC)cc1
- T/C (dose: 100.0 mg/kg/injection, schedule: Q01DX009 (ip), vehicle: saline with Tween-80): 88, 91, 92, 93 % of control
- survivor count (dose: 200.0 mg/kg/injection, schedule: Q01DX009 (ip), vehicle: saline with Tween-80): 6 of 6
- survivor count (dose: 200.0 mg/kg/injection, schedule: Q04DX003 (ip), vehicle: saline with Tween-80): 6 of 6
- survivor count (dose: 400.0 mg/kg/injection, schedule: Q01DX009 (ip), vehicle: saline with Tween-80): 3 of 3 and 6 of 6
- survivor count [2]: 6 of 6

Structure (SMILES): [Cl][Sn]([c]1ccccc1)([c]1ccccc1)[c]1ccccc1
- survivor count (dose: 2.5 mg/kg/injection, schedule: Q01DX009 (ip), vehicle: Klucel (hydroxypropylcellulose) (HPC)): 2 of 6
- survivor count (dose: 10.0 mg/kg/injection, schedule: Q01DX009 (ip), vehicle: Klucel (hydroxypropylcellulose) (HPC)): 0 of 6 and 3 of 6
- survivor count (dose: 20.0 mg/kg/injection, schedule: Q04DX003 (ip), vehicle: Klucel (hydroxypropylcellulose) (HPC)): 3 of 6 and 6 of 6
- survivor count (dose: 40.0 mg/kg/injection, schedule: Q04DX003 (ip), vehicle: Klucel (hydroxypropylcellulose) (HPC)): 0 of 6
- survivor count (dose: 80.0 mg/kg/injection, schedule: Q01DX001 (ip), vehicle: saline): 0 of 4
- survivor count (dose: 80.0 mg/kg/injection, schedule: Q04DX003 (ip), vehicle: Klucel (hydroxypropylcellulose) (HPC)): 0 of 6

Structure (SMILES): CC(=O)Nc1cc(F)c([N+](=O)[O-])cc1[N+](=O)[O-]
- survivor count (dose: 20.0 mg/kg/injection, schedule: Q01DX015 (ip), vehicle: carboxymethylcellulose (CMC)): 4 of 6
- survivor count (dose: 25.0 mg/kg/injection, schedule: Q04DX003 (ip), vehicle: saline): 5 of 6
- survivor count (dose: 40.0 mg/kg/injection, schedule: Q01DX009 (ip), vehicle: saline with Tween-80): 2 of 6
- survivor count (dose: 50.0 mg/kg/injection, schedule: Q04DX003 (ip), vehicle: saline): 3 of 6
- survivor count (dose: 100.0 mg/kg/injection, schedule: Q04DX003 (ip), vehicle: saline): 5 of 6
- survivor count (dose: 200.0 mg/kg/injection, schedule: Q01DX001 (ip), vehicle: saline): 2 of 4
- survivor count [1]: 2 of 4

Structure (SMILES): FC(F)(F)/C([S-])=C(/[S-])C(F)(F)F.FC(F)(F)/C([S-])=C(/[S-])C(F)(F)F.FC(F)(F)/C([S-])=C(/[S-])C(F)(F)F.FC(F)(F)/C([S-])=C(/[S-])C(F)(F)F.[Co+3].[Co+3]
- survivor count (dose: 50.0 mg/kg/injection, schedule: Q01DX009 (ip), vehicle: other): 1 of 6

Structure (SMILES): CN(C)CC/C=C1\c2ccccc2CCSc2ccccc21
- survivor count (dose: 200.0 mg/kg/injection, schedule: Q04DX003 (ip), vehicle: Klucel (hydroxypropylcellulose) (HPC)): 0 of 6
- survivor count (dose: 400.0 mg/kg/injection, schedule: Q04DX003 (ip), vehicle: Klucel (hydroxypropylcellulose) (HPC)): 0 of 6

Structure (SMILES): CCC(=N)C1CCCCC1
- survivor count (dose: 300.0 mg/kg/injection, schedule: Q01DX001 (ip), vehicle: carboxymethylcellulose (CMC)): 0 of 6

Structure (SMILES): CCOC(=O)/C=C1\CCCc2ccc(Cl)cc21
- survivor count (dose: 200.0 mg/kg/injection, schedule: Q04DX002 (ip), vehicle: saline with Tween-80): 3 of 3

Structure (SMILES): C=CCN(Cc1cnc2nc(N)nc(N)c2n1)c1ccc(C(=O)NC(CCC(=O)O)C(=O)O)cc1 (stereo unspecified)
- T/C (dose: 12.0 mg/kg/injection, schedule: Q01DX009 (ip), vehicle: sodium bicarbonate): 133 % of control

Structure (SMILES): c1cnc2c3c(ccc2c1)CN(C12CC4CC(CC(C4)C1)C2)CO3
- survivor count [2]: 0 of 6

Structure (SMILES): COc1cccc(/C=N\N=C\c2cccc(OC)c2OC)c1OC
- T/C (dose: 100.0 mg/kg/injection, schedule: Q01DX009 (ip), vehicle: saline): 126 % of control
